In paper PMC3741135:
Results are given in words; binding and its absence hold for the method and conditions named. Binding seen in cells or lysates may run through a third protein. A result given as binding can be weak or reduced; the word gives no strength.

Protein sequences, listed by entry. Tags and fused reporters are not part of them. Lines headed by an entry give the natural chain unless they say otherwise; changes in a name come on top.
UniProt G9BWQ2: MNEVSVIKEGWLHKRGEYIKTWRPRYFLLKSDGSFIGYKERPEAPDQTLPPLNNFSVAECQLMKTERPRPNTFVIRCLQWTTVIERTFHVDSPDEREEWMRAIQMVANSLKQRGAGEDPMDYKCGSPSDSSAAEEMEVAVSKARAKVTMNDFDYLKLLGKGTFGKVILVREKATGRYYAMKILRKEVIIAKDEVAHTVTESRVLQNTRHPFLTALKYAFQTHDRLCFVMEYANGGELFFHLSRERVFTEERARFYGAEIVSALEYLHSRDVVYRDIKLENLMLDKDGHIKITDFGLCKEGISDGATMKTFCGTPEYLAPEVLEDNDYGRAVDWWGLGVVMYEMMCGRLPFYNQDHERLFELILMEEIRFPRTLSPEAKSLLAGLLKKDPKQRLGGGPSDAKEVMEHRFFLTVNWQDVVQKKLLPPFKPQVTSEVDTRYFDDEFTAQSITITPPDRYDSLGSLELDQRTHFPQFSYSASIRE

Legend:
Experiment in all cases: co-IP; endogenous proteins; 10 mg total porcine adipocyte lysate with 4 µg antibody overnight, captured on goat anti-rabbit or anti-mouse IgG magnetic beads for 4 h; washed 4 times with lysis buffer; Western blot; Akt2 with Sirt1 over the days of differentiation, the other pairs at day 8 after induction
[1] = target: Akt2 (endogenous, porcine adipocytes) (pig (endogenous in porcine adipocytes)) (UniProt G9BWQ2)
[2] = target: GSK3β (endogenous, porcine adipocytes) (pig (endogenous in porcine adipocytes))
[3] = target: PI3K (endogenous, porcine adipocytes) (pig (endogenous in porcine adipocytes))

binding [1]: binds
binding [2]: binds
binding [3]: binds
B1: Sirt1 (endogenous, porcine adipocytes) (protein, UniProt A7LKB1 1-742)
chain: MADEAALALQPGGSPSAVAAEREAPSPPAGEPLRKKPRRDGPGVGRSPGEPGGAALERELPAAAGGCPAAAVLWRETAAGGEREAQAAAAAGEGNNGPGLQGLSREAPPADDFYDDDDDDEGEEEEEAAAAAAIGYRDNLLFGDEIVTNGFHSCESDEDDRASHASSSDWTPRPRIGPYTFVQQHLMIGTDPRTILKDLLPETIPPPELDDMTLWQIVINILSEPPKRKKRKDINTIEDAVKLLQECKKIIVLTGAGVSVSCGIPDFRSRDGIYARLAVDFPDLPDPQAMFDIEYFRKDPRPFFKFAKEIYPGQFQPSLCHKFIALSDKEGKLLRNYTQNIDTLEQVAGIQRIIQCHGSFATASCLICKYKVDCEAVRGDIFNQVVPRCPRCPADEPLAIMKPEIVFFGENLPEQFHRAMKYDKDEVDLLIVIGSSLKVRPVALIPSSIPHEVPQILINREPLPHLHFDVELLGDCDVIINELCHRLGGEYAKLCCNPVKLSEITEKPPRTQKELAHLSELPPTPLNISEGSSSPERTSPPASSVTLPLLDQATKSNVDDLDVSESKDCVEEKSQEVQTSRSIESVKEPMESPGLKNVACSNGEKNERTSVAETVRKCWPARLAKEQISKRLDGNQYLFLPPNRYIFHGAEVYSDSEDDVLSSSSCGSNSESGTCQSPSLEEPMEDESEIEEFYNGLEDDADVNMRAGGTGFGADGSDQEAVNEAISMKQEATGVNYPSNKS
